Results published in paper PMC12785511, “Integrative Profiling for BBB Permeability Using Capillary Electrochromatography, Experimental Physicochemical Parameters, and Ensemble Machine Learning” (International Journal of Molecular Sciences, 2025).

Experiments:
[1] = physchem; settings: pH 7.4
[2] = open-tubular capillary electrochromatography (CEC), permeability k′ parameter; format: in vitro ADME; settings: pH 7.4 HEPES buffer 40 mM, migration times in coated and uncoated capillary, mean ± SD of three independent experiments

logD [1]: 2.19
k′ ± SD (CEC) [2]: −0.01233 ± 0.00010
Structure (SMILES): COc1cc2c(cc1OC)C(=O)C(CC1CCN(Cc3ccccc3)CC1)C2 (centres unmarked) [donepezil]
